Measurements published in PMC6209670.
Results are given in words; binding and its absence hold for the method and conditions named. Binding seen in cells or lysates may run through a third protein. Some entries that bind do so weakly or less than the wild type.

Protein sequences, listed by entry. Tags and fused reporters are not part of them.
UniProt Q7Z434: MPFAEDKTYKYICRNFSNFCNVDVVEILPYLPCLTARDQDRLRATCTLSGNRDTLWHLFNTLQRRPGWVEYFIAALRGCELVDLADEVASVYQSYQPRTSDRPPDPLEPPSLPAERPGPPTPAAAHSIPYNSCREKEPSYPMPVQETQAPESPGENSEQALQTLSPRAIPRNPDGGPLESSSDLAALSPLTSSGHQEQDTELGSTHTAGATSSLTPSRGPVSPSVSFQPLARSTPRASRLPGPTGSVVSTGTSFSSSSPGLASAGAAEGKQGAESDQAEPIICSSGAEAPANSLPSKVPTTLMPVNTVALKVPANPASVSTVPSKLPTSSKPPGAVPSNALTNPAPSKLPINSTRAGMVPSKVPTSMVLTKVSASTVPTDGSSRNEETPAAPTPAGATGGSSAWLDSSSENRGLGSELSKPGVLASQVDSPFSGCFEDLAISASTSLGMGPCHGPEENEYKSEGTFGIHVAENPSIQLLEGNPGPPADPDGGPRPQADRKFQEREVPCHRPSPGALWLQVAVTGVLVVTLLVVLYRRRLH
UniProt P19474: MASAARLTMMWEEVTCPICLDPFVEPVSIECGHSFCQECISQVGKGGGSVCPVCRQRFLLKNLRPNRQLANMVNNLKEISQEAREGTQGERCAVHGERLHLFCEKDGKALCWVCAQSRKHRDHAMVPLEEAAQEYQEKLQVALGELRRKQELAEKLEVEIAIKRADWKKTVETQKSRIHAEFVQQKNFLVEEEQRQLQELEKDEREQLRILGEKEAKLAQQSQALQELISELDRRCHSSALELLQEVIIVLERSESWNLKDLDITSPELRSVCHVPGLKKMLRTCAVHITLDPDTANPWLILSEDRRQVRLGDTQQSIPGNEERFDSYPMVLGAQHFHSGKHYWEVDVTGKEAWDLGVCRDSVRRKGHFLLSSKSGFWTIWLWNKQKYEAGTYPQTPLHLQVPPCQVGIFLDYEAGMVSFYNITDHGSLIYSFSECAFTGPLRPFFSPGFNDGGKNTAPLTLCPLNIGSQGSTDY

Target: Flag-tagged MAVS, full-length (UniProt Q7Z434)
Assay: co-IP; Cells transfected with Flag-MAVS, with or without CVB3 infection (MOI = 5); RIPA lysates immunoprecipitated with anti-Flag beads, washed six times with PBS; Western blot with anti-TRIM21 and anti-Flag

Tripartite motif-containing 21 (TRIM21) (from UniProt P19474 1-475)
binding: binds
